Test results published in PubChem BioAssay AID2685 (National Center for Advancing Translational Sciences (NCATS), 2010).
The list shows a part of the results. These are further read-outs of the screen, such as a control signal, another cell line or another target. No call is given for them. Compounds called inactive in the main read-out are mostly missing here. Potencies come from curve fits of mixed quality, noted in brackets.

Assay: qHTS Assay for Lipid Storage Modulators in Drosophila S3 Cells;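 as to cell number change: cells counted by Cell Tracker Red CMTPX staining in the red channel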
Conditions: BODIPY lipid droplet fluorescence, 18-24 h; for cell number change: measured here: cell count max response, cells fed with added oleic acid
Procedure, shortened: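 Drosophila S3 cells got compounds at several concentrations plus oleic acid (400 uM solution). Laser-scanning cytometry with 488 nm excitation read lipid droplets at 500-530 nm and cells at 575-640 nm. Percent activity was relative to 20 uM Triacsin C.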

[1] = measured here: lipid fluorescence (Fed channel) AC50, cells fed with added oleic acid
[2] = measured here: cell number channel AC50, cells fed with added oleic acid

CCNC(=S)N/N=C(\C)c1ccco1
cell number change: 0.678% | AC50 [1]: 0.00517 µM [rising, full curve, poor fit]

COc1ccc(NC(=O)CC(C)CC(=O)NCc2ccccc2)c(OC)c1 (stereo not given)
cell number change: 7.35% | AC50 [1]: 20.6 µM [rising, single point]

O=C(OCC(=O)c1ccc[nH]1)c1ccc2ccccc2n1
AC50 [1]: 6.51 µM [falling, partial curve, poor fit]

COc1ccc(N(CC(=O)NC2CCCC2)C(=O)CCC(=O)Nc2nc(C)cs2)cc1OC
cell number change: 23.4% | AC50 [1]: 29.1 µM [rising, single point]

COc1ccc2[nH]c(C)c(CCNC(=S)Nc3cc(C)ccc3C)c2c1
cell number change: 29% | AC50 [1]: 1.3 µM [rising, full curve]

CCOC(=O)C1=C(C)NC(SC)=C(C#N)C1CC(C)C (stereo not given)
cell number change: -2.81% | AC50 [1]: 6.51 µM [rising, partial curve, poor fit]

CC1CN(C2CCN(C(=O)COc3ccc(Cl)cc3)CC2)CC(C)O1 (stereo not given)
cell number change: 3.42% | AC50 [2]: 0.58 µM [rising, full curve, poor fit]

O=C(Nc1ncc([N+](=O)[O-])s1)c1ccccc1Br
cell number change: -61.8% | AC50 [2]: 9.2 µM [falling, partial curve] | AC50 [1]: 32.6 µM [falling, single point]

Cc1ccc(S(=O)(=O)NCC(=O)NC2CCCCCC2)cc1
cell number change: 13% | AC50 [1]: 0.366 µM [falling, partial curve, poor fit]

CC(C)[C@H](NC(=O)OCc1ccccc1)C(=O)OCC(=O)NC1(C#N)CCCC1
cell number change: -6.93% | AC50 [1]: 29.1 µM [rising, single point]

Cc1ccc2c(nc3s/c(=C/c4cccs4)c(=O)n32)c1C
cell number change: -22.3% | AC50 [1]: 14.6 µM [falling, partial curve, poor fit]

O=C(CN1CCCC1)Nc1ccccc1Sc1ccc(Cl)cc1
cell number change: -30.1% | AC50 [2]: 9.2 µM [falling, partial curve] | AC50 [1]: 10.3 µM [falling, partial curve]

COC(=O)c1c(NC(=O)c2nc3nc(C)cc(C(F)F)n3n2)sc2c1CCC2
cell number change: 0.909% | AC50 [1]: 4.61 µM [rising, partial curve]

C=CCOc1cccc(/C=N/NC(=O)CN(c2cc(Cl)ccc2OC)S(=O)(=O)c2ccc(C)c([N+](=O)[O-])c2)c1
cell number change: 27.1% | AC50 [1]: 2.06 µM [rising, partial curve, poor fit]

COP(=O)(OC)C(Nc1ccc(C)cc1)c1ccc([N+](=O)[O-])cc1 (stereo not given)
cell number change: 11.6% | AC50 [1]: 0.0058 µM [rising, full curve, poor fit]

CS(=O)(=O)c1ccc(N)c(SSc2cc(S(C)(=O)=O)ccc2N)c1
cell number change: -84.8% | AC50 [2]: 25.9 µM [falling, partial curve] | AC50 [1]: 0.0731 µM [falling, full curve, poor fit]

COc1ccc(-c2cc(C(=O)n3cnc4ccccc43)c3ccccc3n2)cc1
cell number change: 40.4% | AC50 [2]: 2.06 µM [rising, partial curve] | AC50 [1]: 4.11 µM [rising, partial curve]

CCc1nnc(NC(=O)c2ccc(-c3cc(C(F)(F)F)ccc3Cl)o2)s1
cell number change: -4.29% | AC50 [1]: 6.51 µM [falling, single point]

c1ccc(-c2cc(N3CCCCC3)c3ccccc3n2)cc1
cell number change: -9.38%

COc1ccc(CN2CCn3ncc(C(=O)Nc4ccccc4)c3C2=O)cc1
cell number change: 3.61% | AC50 [1]: 0.366 µM [falling, full curve]

Cc1ccc(C)c(S(=O)(=O)Nc2cc3c4c(c2)CC(=O)N4CCC3)c1
AC50 [2]: 0.13 µM [rising, full curve, poor fit]

CCOc1ccc(N/N=C(/C#N)C(N)=O)cc1
cell number change: -14.2% | AC50 [1]: 11.6 µM [falling, partial curve, poor fit]

O=C(CC1C(=O)NC2CCCCC2N1C(=O)c1ccc([N+](=O)[O-])cc1)Nc1ccccc1 (stereo not given)
cell number change: -14.4%

O=C(NNc1nc(-c2ccc(Br)cc2)cs1)c1ccco1
AC50 [1]: 29.1 µM [falling, partial curve, poor fit]

CCOc1cc(C2c3c(n[nH]c3C)C(=O)N2c2ccc(C)cc2)ccc1O (stereo not given)
AC50 [2]: 5.8 µM [falling, single point]

CCOC(=O)C1=C(CN2CCN(c3ccc(F)cc3)CC2)NC(=O)NC1c1cccs1 (stereo not given)
cell number change: -20.7% | AC50 [1]: 1.84 µM [rising, partial curve, poor fit]

O=C(Oc1ccc(N2C(=O)CCC2=O)cc1)c1ccccc1Cl
cell number change: 19.8% | AC50 [1]: 0.651 µM [falling, full curve, poor fit]

Cc1cccc(C(=O)N/N=C2\CS(=O)(=O)N(C)c3ccsc32)c1
cell number change: 4.22% | AC50 [1]: 6.51 µM [rising, single point]

CCN(CC(=O)NCc1cccs1)C(=O)/C=C/c1cccc(OC)c1OC
cell number change: 18.5%

Cn1c2c(c(=O)n3ncnc13)CCCC2
AC50 [2]: 0.92 µM [falling, full curve]

C(=C(c1ccccc1)c1ccccc1)c1ccccn1
cell number change: 4.55% | AC50 [2]: 1.46 µM [falling, partial curve, poor fit] | AC50 [1]: 2.06 µM [falling, partial curve, poor fit]

COc1cccc(C(c2sc3ncnn3c2O)N2CC(C)OC(C)C2)c1 (stereo not given)
AC50 [2]: 2.91 µM [rising, partial curve, poor fit] | AC50 [1]: 0.326 µM [rising, full curve, poor fit]

CC(=O)NC(Cc1ccccc1C)C(=O)NC1CCN(c2ncccc2[N+](=O)[O-])CC1 (stereo not given)
cell number change: -22.4% | AC50 [2]: 2.06 µM [rising, partial curve] | AC50 [1]: 0.411 µM [rising, full curve]

CC/C(C)=N/Nc1nc(-c2cc3cccc(OC)c3oc2=O)cs1
cell number change: 1.57% | AC50 [1]: 6.51 µM [falling, single point]

CCOC(=O)N1CCN(Cc2ccccc2F)CC1
cell number change: 3.59%

O=C(N/C(=C/c1cccc([N+](=O)[O-])c1)C(=O)N1CCOCC1)c1ccc(Br)cc1
cell number change: 31.7% | AC50 [2]: 13 µM [rising, single point]

CCOc1ccc(/C=C2/SC(=O)NC2=S)cc1
cell number change: -6.23%
